Drawing on the supplement of paper PMC7580552, this text covers biofilm formation for 74 compounds.

Molecules are shown by their SMILES. Where a name gives a salt, the structure may show the parent alone. Some of the results follow. Part of the spread comes from offsets between plates or batches.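 The strain is a K-12 laboratory model grown without shaking in 96-well plates, and biofilm is the crystal violet stain retained on the wells, read as absorbance. Drugs were picked as candidate specific biofilm blockers when they cut staining strongly but slowed free-floating growth by less than 70%.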

In this assay the test system is Escherichia coli W3110. The assay can be described thus: biofilm formation (crystal violet staining) relative to untreated control; higher = more biofilm. To be noted: 10 µM; 20-24 h; 30 °C; TB.
For the compound `Cc1cnc(NC(=O)C2=C(O)c3ccccc3S(=O)(=O)N2C)s1` [Meloxicam], the biofilm formation worked out at 57%.

Turning to `O=C(O)COC(=O)Cc1ccccc1Nc1c(Cl)cccc1Cl` [Aceclofenac], the biofilm formation turned out to be 62%.

Turning to `C[C@H](N[C@@H](CCc1ccccc1)C(=O)O)C(=O)N1CCC[C@H]1C(=O)O` [Enalaprilat dihydrate], the biofilm formation was determined as 65%.

Regarding `CN(C)[C@@H]1C(O)=C(C(N)=O)C(=O)[C@@]2(O)C(O)=C3C(=O)c4c(O)cccc4[C@@](C)(O)[C@H]3C[C@@H]12` [Tetracycline hydrochloride], the biofilm formation was determined as 22%.

For `CC(=O)[C@@]12O[C@](C)(c3ccccc3)O[C@@H]1C[C@H]1[C@@H]3CCC4=CC(=O)CC[C@]4(C)[C@H]3CC[C@@]12C` [Algestone acetophenide], the biofilm formation came to 63%.

For the compound `C[C@]12CCC(=O)C=C1CC[C@@H]1[C@@H]2C(=O)C[C@@]2(C)[C@H]1CC[C@]2(O)C(=O)CO` [Cortisone], the biofilm formation came out at 56%.

On to `COC(=O)[C@H](c1ccccc1Cl)N1CCc2sccc2C1` [Clopidogrel], for which the biofilm formation stood at 66%.

`COCCCC/C(=N\OCCN)c1ccc(C(F)(F)F)cc1` [Fluvoxamine maleate] gave a biofilm formation of 60%.

On to `CCOC(=O)N1CCC(=C2c3ccc(Cl)cc3CCc3cccnc32)CC1` [Loratadine], for which the biofilm formation came out at 60%.

As for `COc1ccc(CC(C)NCC(O)c2ccc(O)c(NC=O)c2)cc1` (centres undefined) [Formoterol fumarate], the biofilm formation was found to be 120%.

For `c1ccc(CC2=NCCN2)cc1` [Tolazoline hydrochloride], the biofilm formation amounted to 91%.

In turn, `OCCN1CCN(CCCN2c3ccccc3Sc3ccc(C(F)(F)F)cc32)CC1` [Fluphenazine dihydrochloride] showed a biofilm formation of 72%.

In the case of `CC(C)(Oc1ccc(CCNC(=O)c2ccc(Cl)cc2)cc1)C(=O)O` [Bezafibrate], the biofilm formation was 70%.

As for `O=C1c2ccccc2C(=O)C1c1ccccc1` [Phenindione], the biofilm formation was found to be 59%.

`Clc1ccc2c(c1)C(N1CCNCC1)=Nc1ccccc1O2` [Amoxapine] returned a biofilm formation of 11%.

The compound `O=C(O)CCc1nc(-c2ccccc2)c(-c2ccccc2)o1` [Oxaprozin] came in with a biofilm formation of 102%.

For `CC[C@H]1OC(=O)[C@H](C)[C@@H](O[C@H]2C[C@@](C)(OC)[C@@H](O)[C@H](C)O2)[C@H](C)[C@@H](O[C@@H]2O[C@H](C)C[C@H](N(C)C)[C@H]2O)[C@](C)(O)C[C@@H](C)C(=O)[C@H](C)[C@@H](O)[C@]1(C)O` [Erythromycin], the biofilm formation is 59%.

In turn, `Cc1c(Cl)cccc1Nc1ccccc1C(=O)O` [Tolfenamic acid] registered a biofilm formation of 58%.

Take `CCCSc1ccc2[nH]c(NC(=O)OC)nc2c1` [Albendazole]: the biofilm formation was 57%.

Consider `CO[C@H]1/C=C/O[C@@]2(C)Oc3c(C)c(O)c4c(O)c(c(/C=N/N5CCN(C)CC5)c(O)c4c3C2=O)NC(=O)/C(C)=C\C=C\[C@H](C)[C@H](O)[C@@H](C)[C@@H](O)[C@@H](C)[C@H](OC(C)=O)[C@@H]1C` [Rifampicin], for which the biofilm formation stood at 18%.

As to `Cc1ccc(N(CC2=NCCN2)c2cccc(O)c2)cc1` [Phentolamine hydrochloride], the biofilm formation was 87%.

`CCc1ccc(CCOc2ccc(CC3SC(=O)NC3=O)cc2)nc1` (centres undefined) [Pioglitazone] displayed a biofilm formation of 43%.

As to `CC(C(=O)O)c1cccc(Oc2ccccc2)c1` (centres undefined) [Fenoprofen calcium salt dihydrate], the biofilm formation was found to be 58%.

Consider `Oc1ccc(C2CNCCc3c2cc(O)c(O)c3Cl)cc1` (centres undefined) [Fenoldopam], for which the biofilm formation turned out to be 60%.

Take `CCCc1ncc(C[n+]2ccccc2C)c(N)n1` [Amprolium hydrochloride]: the biofilm formation came out at 89%.

`CC(=O)OCC(=O)NCCCOc1cccc(CN2CCCCC2)c1` [Roxatidine Acetate hydrochloride] registered a biofilm formation of 90%.

Regarding `CCn1cc(C(=O)O)c(=O)c2cc(F)c(N3CCNCC3)nc21` [Enoxacin], the biofilm formation is 18%.

`CC(C)(C)C(=O)OCOC(=O)[C@@H]1N2C(=O)[C@@H](/N=C/N3CCCCCC3)[C@H]2SC1(C)C` [Pivmecillinam hydrochloride]: the biofilm formation came out at 35%.

Take `CNc1ncnc2c1ncn2[C@@H]1O[C@H](CO)[C@@H](O)[C@H]1O` [N6-methyladenosine]: the biofilm formation is 66%.

In the case of `OCC(O)CN1CCN(c2ccccc2)CC1` (racemic) [Dropropizine (R,S)], the biofilm formation came to 55%.

`C[C@@H](O)[C@H]1C(=O)N2C(C(=O)O)=C(SCCNC=N)C[C@H]12` [Imipenem] registered a biofilm formation of 8%.

Consider `c1ccc2c(c1)CCCC2C1=NCCN1` (centres undefined) [Tetrahydrozoline hydrochloride], for which the biofilm formation is 66%.

For `C1N2CN3CN1CN(C2)C3` [Methenamine], the biofilm formation turned out to be 75%.

In turn, `O=C1NCCN1c1ncc([N+](=O)[O-])s1` [Niridazole] registered a biofilm formation of 54%.

Consider `CCCCCN(C)CCC(O)(P(=O)(O)O)P(=O)(O)O` [Ibandronate sodium], for which the biofilm formation amounted to 49%.

With `Nc1ccc(S(=O)(=O)NC(=O)c2ccccc2)cc1` [Sulfabenzamide], the biofilm formation was determined as 52%.

`C=C(CC)C(=O)c1ccc(OCC(=O)O)c(Cl)c1Cl` [Ethacrynic acid] displayed a biofilm formation of 68%.

Compound `CS(=O)(=O)c1ccc([C@@H](O)[C@@H](CF)NC(=O)C(Cl)Cl)cc1` [Florfenicol] yielded a biofilm formation of 30%.

As for `CCN(CC)CCCC(C)Nc1ccnc2cc(Cl)ccc12` (centres undefined) [Chloroquine diphosphate], the biofilm formation is 86%.

`CN1CCC(=C2c3ccccc3C=Cc3ccccc32)CC1` [Cyproheptadine hydrochloride] yielded a biofilm formation of 11%.

For the compound `CC(C)(C)NC[C@@H](O)COc1cccc2c1CCCC2=O` [(+) -Levobunolol hydrochloride], the biofilm formation turned out to be 68%.

The compound `CO[C@H]1/C=C/O[C@@]2(C)Oc3c(C)c(O)c4c(O)c(c(/C=N/N5CCN(C6CCCC6)CC5)c(O)c4c3C2=O)NC(=O)/C(C)=C\C=C\[C@H](C)[C@H](O)[C@@H](C)[C@@H](O)[C@@H](C)[C@H](OC(C)=O)[C@@H]1C` [Rifapentine] returned a biofilm formation of 10%.

Consider `N=C(N)NC(=N)NCCc1ccccc1` [Phenformin hydrochloride], for which the biofilm formation is 87%.

`C[C@H]1O[C@H](O[C@H]2[C@H](O)[C@@H](O)[C@@H](O[C@H]3[C@H](O)[C@@H](O)C(O)O[C@@H]3CO)O[C@@H]2CO)[C@H](O)[C@@H](O)[C@@H]1N[C@H]1C=C(CO)[C@@H](O)[C@H](O)[C@H]1O` (some centres undefined) [Acarbose]: the biofilm formation was determined as 66%.

On to `NNCCc1ccccc1` [Phenelzine sulfate], for which the biofilm formation turned out to be 83%.

As for `CC(=O)S[C@@H]1CC2=CC(=O)CC[C@]2(C)[C@H]2CC[C@@]3(C)[C@@H](CC[C@@]34CCC(=O)O4)[C@H]12` [Spironolactone], the biofilm formation amounted to 59%.

`CCCc1cc(C(N)=S)ccn1` [Prothionamide] displayed a biofilm formation of 75%.

On to `CC(Cc1cccc(C(F)(F)F)c1)NCCOC(=O)c1ccccc1` (centres undefined) [Benfluorex], for which the biofilm formation was 56%.

In turn, `NS(=O)(=O)c1cc(C2(O)NC(=O)c3ccccc32)ccc1Cl` (centres undefined) [Chlorthalidone] showed a biofilm formation of 63%.

As to `C=CC(N)CCC(=O)O` (centres undefined) [Vigabatrin hydrochloride], the biofilm formation worked out at 96%.

For the compound `CC(=O)OCC(=O)[C@@]1(O)CC[C@H]2[C@@H]3CCC4=CC(=O)CC[C@]4(C)[C@H]3[C@@H](O)C[C@@]21C` [Cortisol acetate], the biofilm formation came out at 52%.

In the case of `Cc1ncc(C[n+]2csc(CCO)c2C)c(N)n1` [Thiamine hydrochloride], the biofilm formation was determined as 52%.

On to `CC(C)c1c(C(=O)Nc2ccccc2)c(-c2ccccc2)c(-c2ccc(F)cc2)n1CC[C@@H](O)C[C@@H](O)CC(=O)O` [Atorvastatin], for which the biofilm formation is 97%.

On to `CCN[C@H]1CN(CCCOC)S(=O)(=O)c2sc(S(N)(=O)=O)cc21` [Brinzolamide], for which the biofilm formation stood at 47%.

The compound `CCCCN(CCCC)CCCOC(=O)c1ccc(N)cc1` [Butacaine] displayed a biofilm formation of 85%.

The compound `COC(=O)Nc1nc2cc(C(=O)c3cccs3)ccc2[nH]1` [Nocodazole] showed a biofilm formation of 70%.

Compound `Cc1ccc(C(=O)c2ccc(CC(=O)O)n2C)cc1` [Tolmetin sodium salt dihydrate] showed a biofilm formation of 71%.

Compound `CC[N+](C)(CC)CCOC(=O)C1c2ccccc2Oc2ccccc21` [Methantheline bromide] yielded a biofilm formation of 61%.

As for `CC(=O)OCC(=O)[C@@]1(O)CC[C@H]2[C@@H]3CCC4=CC(=O)CC[C@]4(C)[C@@]3(F)[C@@H](O)C[C@@]21C` [Fludrocortisone acetate], the biofilm formation was found to be 71%.

`Cc1cn[nH]c1` [Fomepizole] gave a biofilm formation of 71%.

Compound `NCCc1c[nH]cn1` [Histamine dihydrochloride] gave a biofilm formation of 85%.

The compound `OC(Cn1cncn1)(Cn1cncn1)c1ccc(F)cc1F` [Fluconazole] returned a biofilm formation of 104%.

`CCCOc1cc(N)ccc1C(=O)OCCN(CC)CC` [Propoxycaine hydrochloride]: the biofilm formation came to 73%.

Turning to `CC[N+](C)(C)c1cccc(O)c1` [Edrophonium chloride], the biofilm formation was found to be 67%.

`O=C1c2c(O)cccc2Cc2cccc(O)c21` [Anthralin]: the biofilm formation was 87%.

Compound `COc1cc(C(=O)OCCCN2CCCN(CCCOC(=O)c3cc(OC)c(OC)c(OC)c3)CC2)cc(OC)c1OC` [Dilazep dihydrochloride] had a biofilm formation of 82%.

`CN(C)CCCN1c2ccccc2Sc2ccc(C(F)(F)F)cc21` [Triflupromazine hydrochloride] had a biofilm formation of 69%.

As to `CC(=O)Oc1ccccc1C(=O)Nc1ncc([N+](=O)[O-])s1` [Nitazoxanide], the biofilm formation came to 61%.

Take `CCN(CC)CCOC(=O)C1(C2CCCCC2)CCCCC1` [Dicyclomine hydrochloride]: the biofilm formation is 78%.

`CC(N/C(=N\C#N)Nc1ccncc1)C(C)(C)C` (centres undefined) [Pinacidil] came in with a biofilm formation of 47%.

In the case of `CCCCC(O)c1ccccc1` (centres undefined) [Fenipentol], the biofilm formation came out at 92%.

The compound `N=C(NCCCCCCNC(=N)NC(=N)Nc1ccc(Cl)cc1)NC(=N)Nc1ccc(Cl)cc1` [Chlorhexidine] showed a biofilm formation of 9%.

Compound `NCc1ccccc1CC(=O)N[C@@H]1C(=O)N2C(C(=O)O)=C(CSc3nnnn3CC(=O)O)CS[C@H]12` [Ceforanide] came in with a biofilm formation of 2%.

`CN1CCN(C2=Nc3ccccc3Oc3ccc(Cl)cc32)CC1` [Loxapine succinate] came in with a biofilm formation of 69%.
